Data as given in PubChem BioAssay AID743454 (Peter MacCallum Cancer Centre, 2014).
Here is a random part of about 18,000 reagents tested. 450 of all reagents (2.5%) were called active. 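Single biological run; no consistent viability z cut-off exists, so the class columns, not z-scores, define the calls.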

Assay: 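Search for knock-downs that restore vorinostat killing in resistant colon cancer cells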 (primary screen)
Cell system: human HCT116-VR colon cancer cells, selected for vorinostat resistance
Reagents: siRNA pool against human genes, 40 nM siRNA pool
Timing: vorinostat for 24 h, read-out about 72 h after transfection
Treatment: vorinostat at 2.5 µM final
Detection: 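Two measures, CellTiter-Fluor viability and luminescent caspase 3/7 activity, each as fold change against same-plate mock wells, mean of duplicates, then screen-wide robust z-score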
Direction: viability robust z-score: higher = more viable cells than screen typical; caspase robust z-score: higher = more caspase 3/7 activity than screen typical
Hit rule: 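a knock-down is a hit when classed RV1 or RV2 for lowered viability, or CA1 or CA2 for caspase activation; those lethal without drug were dropped; hits were retested singly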

viability hit class	caspase hit class	viability robust z-score	caspase robust z-score	Outcome	gene symbol
no change	no change	-0.4	-0.38	inactive	TFCP2
no change	no change	-0.26	-1.07	inactive	AP3M2
no change	no change	0.3	3.33	inactive	EPB41L2
no change	no change	0.13	-0.34	inactive	TMEM132B
no change	no change	-0.97	-1.16	inactive	NDRG4
no change	no change	0.6	-0.04	inactive	ALDH3A1
no change	no change	-0.25	1.34	inactive	FABP7
no change	no change	-1.08	0.89	inactive	PHF21B
no change	no change	0.55	-0.82	inactive	DR1
no change	no change	-0.17	2.51	inactive	LAX1
no change	no change	0.49	-0.56	inactive	MAN2A2
no change	no change	-0.73	0.72	inactive	PTGS1
no change	no change	1.36	-0.55	inactive	GNPDA1
no change	no change	-1.06	2.26	inactive	PIK3IP1
no change	no change	-1.18	-0.55	inactive	C1orf198
no change	no change	-0.55	-0.84	inactive	EMC4
no change	no change	1.36	3.87	inactive	GPR61
no change	no change	-0.06	0.18	inactive	WFDC9
no change	no change	1.14	-0.52	inactive	GJA9
no change	no change	0.96	-0.66	inactive	GNAO1
no change	no change	-0.55	-0.41	inactive	NDUFS1
no change	no change	-1.71	-0.46	inactive	YOD1
no change	no change	-0.36	3.15	inactive	CMTM5
no change	no change	-0.01	0.33	inactive	H2AC15
no change	no change	-1.5	0.94	inactive	ASTE1
no change	no change	-0.02	-0.64	inactive	RBBP5
no change	no change	-0.08	3.35	inactive	GCKR
no change	no change	0.66	-0.82	inactive	PPP2R5A
no change	no change	-0.83	0.85	inactive	TASL
no change	no change	-2.67	4.52	inactive	LINC02914
no change	no change	-0.56	-0.2	inactive	DTNBP1

Ordered by “caspase robust z-score” (descending): 5 of the entries above
viability hit class	caspase hit class	viability robust z-score	caspase robust z-score	Outcome	gene symbol
no change	no change	-2.67	4.52	inactive	LINC02914
no change	no change	-0.08	3.35	inactive	GCKR
no change	no change	-0.83	0.85	inactive	TASL
no change	no change	-0.02	-0.64	inactive	RBBP5
no change	no change	0.66	-0.82	inactive	PPP2R5A

The results go on:
viability hit class	caspase hit class	viability robust z-score	caspase robust z-score	Outcome	gene symbol
no change	no change	-1.31	-1	inactive	EPB41L3
no change	no change	1.52	-0.68	inactive	LRRC37A3
no change	no change	-0.09	-1	inactive	CSNK1G2-AS1
no change	no change	0.02	-0.23	inactive	ASCL3
no change	no change	0.96	-0.9	inactive	OR10G8
no change	no change	0.72	-0.37	inactive	TLE3
no change	no change	-0.31	-0.82	inactive	EIF2A
no change	no change	-0.26	-1.04	inactive	UCK2
no change	no change	0.8	-0.18	inactive	CCDC57
no change	no change	-0.06	-0.3	inactive	TP63
no change	no change	-1.01	4.57	inactive	MUC15
no change	no change	0.16	-0.63	inactive	ALOX12
no change	no change	-0.62	-0.2	inactive	SLC25A30
no change	no change	0.05	-0.31	inactive	DCAF8
no change	no change	0.14	-0.94	inactive	PRDM11
no change	no change	0.4	0.4	inactive	HOXA9
no change	no change	-0.68	4.57	inactive	EEF1AKMT3
no change	no change	0.97	-0.08	inactive	KLHL38
no change	no change	-1.39	1.74	inactive	DDX31
no change	no change	1.21	-0.9	inactive	TPGS2
no change	no change	-1.6	-0.82	inactive	SFRP4
no change	no change	0.48	-0.38	inactive	INSIG2
no change	no change	0.32	-0.17	inactive	COX6A1
no change	no change	-0.63	0.3	inactive	IL24
no change	no change	0.78	-0.38	inactive	SLC36A4
no change	no change	0.57	0.68	inactive	DELEC1
